Source: article PMC12470716, “Inhibitory Effect of Fucoidan Analogs on Highly Metastatic Gastric Cancer Cells via Galectin-4 Inhibition” (International Journal of Molecular Sciences, 2025)
Results are given in words; binding and its absence hold for the method and conditions named. Some entries that bind do so weakly or less than the wild type. Sequences can lack the tags named with a protein.

Target: T1, asialofetuin (UniProt P12763)
T1 sequence: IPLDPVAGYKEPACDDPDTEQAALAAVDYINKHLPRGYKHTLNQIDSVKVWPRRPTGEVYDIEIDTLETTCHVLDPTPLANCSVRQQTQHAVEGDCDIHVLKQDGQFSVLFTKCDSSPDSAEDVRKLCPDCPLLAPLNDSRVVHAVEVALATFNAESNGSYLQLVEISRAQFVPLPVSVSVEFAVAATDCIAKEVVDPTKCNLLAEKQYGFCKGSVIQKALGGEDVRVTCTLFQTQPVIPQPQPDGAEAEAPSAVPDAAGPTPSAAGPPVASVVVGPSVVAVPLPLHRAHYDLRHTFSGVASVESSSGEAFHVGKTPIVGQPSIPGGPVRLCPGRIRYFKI
Assay: ELISA; ligand-coated plate; galectin-4 (0.25 ug/mL) with or without fucoidan analogs in 1% BSA in PBS, 1 h at room temperature; detected with anti-His-tag mAb-HRP; coating conditions for asialofetuin not told; both purified

binding: binds
B1: Human recombinant galectin-4 (full-length, His-tagged) (protein, UniProt P56470 1-323)
chain: MAYVPAPGYQPTYNPTLPYYQPIPGGLNVGMSVYIQGVASEHMKRFFVNFVVGQDPGSDVAFHFNPRFDGWDKVVFNTLQGGKWGSEERKRSMPFKKGAAFELVFIVLAEHYKVVVNGNPFYEYGHRLPLQMVTHLQVDGDLQLQSINFIGGQPLRPQGPPMMPPYPGPGHCHQQLNSLPTMEGPPTFNPPVPYFGRLQGGLTARRTIIIKGYVPPTGKSFAINFKVGSSGDIALHINPRMGNGTVVRNSLLNGSWGSEEKKITHNPFGPGQFFDLSIRCGLDRFKVYANGQHLFDFAHRLSAFQRVDTLEIQGDVTLSYVQI
